Measured values taken from PubChem BioAssay AID1347426 (Functional Genomics Laboratory (NCATS/FGL), 2020).
The campaign covered roughly 31,000 sequences. About 1,400 (4.5%) were called active.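 Rule for the calls: active = median seed-adjusted z-score above 1 or below -1; inactive = the rest.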 The list shows a part of the results.

Assay: Novel Modifiers of Survival Motor Neuron (SMN) Protein: Gene Identification via Genome-wide siRNA Screen;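 note: luminescence tracks full-length SMN protein made from the SMN2 reporter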
Settings: HEK293T SMN2-luciferase reporter, siRNA knockdown, 72 h; actives lie on both sides
Procedure, shortened: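 Steps: spot 1 pmol siRNA, add Lipofectamine RNAiMax in serum-free DMEM, seed HEK293T SMN2–luciferase reporter cells; incubate 72 h at 37 °C; add ONE-Glo; normalize luminescence to control siRNA, log10, MAD. Candidates: |MAD| > 1.0.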

| Sequence | median seed-adjusted z-score |
| --- | --- |
| AGUGACCGCUUUAAGCACATT against GLIS2 | inactive: 0.206 |
| AAAUACAAGUGUGCAUUUATT against CCRL2 | inactive: 0.575 |
| GCACAACAGGGUUCUAUCATT against EYA2 | inactive: 0.111 |
| CAGUUCAUGUGGAUCAUCATT against GABARAPL2 | inactive: 0.528 |
| GGAAUUGGAAAGAAUCAGATT against C1D | inactive: 0.021 |
| CCCUUGAUUGGGUAACAAATT against WDR46 | inactive: -0.136 |
| GCUUUUCUCUUACUGUGCATT against ZNF558 | inactive: -0.393 |
| GGUCUGAAACUCUACUAUATT against SHPRH | inactive: 0.169 |
| CGAUUCUACAGGUCACGGATT against NFS1 | inactive: 0.141 |
| CCUCGUUUGACACCACUGATT against SCARF2 | inactive: 0 |
| GCUACGAUCACAUUACGAATT against JARID1D | inactive: 0.293 |
| CGAAGAUUAGAGGAACAAATT against MLLT10 | inactive: -0.147 |
| GUGUAUGUUUGGACCCUGATT against WDR1 | inactive: -0.457 |
| CCACCGAUGUUCUAAAGAUTT against SLC25A14 | inactive: 0.281 |
| GUAAAGAGGUGAAGCAUAUTT against SNTB2 | inactive: 0.268 |
| CGAUGGAGAUCAACGUGAATT against UBE2E2 | active: -1.77 |
| CCAUAUUCAUGCUCAGCUUTT against ADCY5 | inactive: -0.123 |
| GCAGCAUGAACUUAUCAUATT against ADAM19 | inactive: 0.0996 |
| ACAUAAAUGCAGCCCAUUUTT against TLX1 | inactive: -0.815 |
| CAAAUCGUGUGGUACAGAATT against SUV39H1 | inactive: -0.0775 |
| GGUUCCCUGCUACGCUAAATT against ALX4 | inactive: -0.121 |
| GCACCCAUUUUUCCGGCUATT against PKN2 | inactive: 0.383 |

4 entries picked at random from the list so far, as already listed:

| Sequence | median seed-adjusted z-score |
| --- | --- |
| CAAAUCGUGUGGUACAGAATT against SUV39H1 | inactive: -0.0775 |
| CCAUAUUCAUGCUCAGCUUTT against ADCY5 | inactive: -0.123 |
| CGAUGGAGAUCAACGUGAATT against UBE2E2 | active: -1.77 |
| CGAUUCUACAGGUCACGGATT against NFS1 | inactive: 0.141 |

(list continues)

| Sequence | median seed-adjusted z-score |
| --- | --- |
| CGGCAUGAAGUUUGAGAUUTT against CLDN14 | inactive: -0.456 |
| GGCAGUUGAUUGUGGAUGATT against GCN1L1 | inactive: 0.0513 |
| GCACCAGCCUGAAAGUGAATT against SIRPB2 | inactive: 0 |
| CAAGCUUGUUAACAUCAAATT against NPVF | inactive: 0.588 |
| GGAUGAUCGGUGUCCAGGATT against CABP5 | inactive: 0.372 |
| CAAUGAGGCUCUGGACAAATT against IQGAP3 | inactive: -0.183 |
| CUGCUUUGCUGGUAUCGAATT against CRIM1 | inactive: -0.155 |
| CACCAUUGACUACCACAAATT against NDST1 | inactive: -0.0763 |
| AGUCAUACCUUACCCAGCATT against ZNF264 | inactive: 0.617 |
| GGGAGAAUAUCUCAGAGUATT against CDH5 | inactive: -0.557 |
| CGAUUAUUGUGAGCCUAAUTT against JAG1 | inactive: -0.32 |
| UCACUGAUGUACUACCUAUTT against RPUSD4 | inactive: -0.0264 |
| GGAUGCAGAUUGUUCUAGUTT against ZBTB1 | inactive: 0.3 |
| CCGUGACAGCGACCAUUCATT against FIBCD1 | inactive: -0.0249 |
| UGACACUGCUUAACACCAUTT against BCKDHA | inactive: -0.299 |
| GGCUAAUUACAGUGCAGAATT against GJA1 | inactive: 0.348 |
| GGUCAUUGGUAGGUCUUCATT against AATF | inactive: 0.182 |
| GGAUAAGGGCUGCUCCCAATT against SAT2 | inactive: -0.43 |
| CCUGGAUUACAUCUACUUATT against EPHB6 | inactive: -0.0275 |
| GAGCCACUACCUUUGUCCATT against GNB3 | inactive: -0.373 |
| GAAUUGAACAGGAUAAAGATT against PGGT1B | inactive: -0.164 |
| GCAGAUCUCGCUACAGGGATT against SFRS2B | inactive: -0.272 |

| Sequence | median seed-adjusted z-score |
| --- | --- |
| GACAUAUCCUUGUUCUACATT against XRCC6 | inactive: 0 |
| CCAAGGGAGUGACCUAUUUTT against SDK1 | inactive: 0.604 |
| GGAGGAGUCCCUCAACUUATT against ETV7 | inactive: -0.00772 |
| CCCAGGUCAUCAUCCUGAATT against EEF1A2 | inactive: -0.64 |
| GGCUAUAUCAGGUUAUGAATT against SLC27A6 | inactive: -0.172 |
| CAUUCACGGUUUCAACUAUTT against RNF160 | inactive: -0.163 |
| CAAUGAUCCAAUCCACGAATT against IQGAP1 | inactive: -0.615 |
| GAGUGAUUCUAGCCUCUAATT against SEC61A1 | inactive: 0.312 |
| UCCAAUUCAUCUUAUCAAATT against MOGAT1 | inactive: 0.293 |
| CAGUGGGCGUGAUCAUGUATT against PRKD2 | inactive: 0.00493 |
| CAAGCGUGAUGUGACCCUUTT against PPP2R2B | inactive: -0.252 |
| GGUUCCGAGUUGAGACAAATT against NAAA | inactive: -0.137 |
| GUCUUUGCAUCCUAGAUAATT against UNC5D | inactive: -0.132 |
| CAUUCAUAAUGGACGGGAATT against DHDDS | inactive: 0.0122 |
| GAUUAUACCCAGACAUACATT against SLC16A4 | inactive: 0.341 |
| ACUCAACUCUGAUACUCCATT against DMRTC2 | inactive: 0 |
| GCGUGUGAAUUAUGCGGGATT against ZNF509 | inactive: 0 |
| AGAUGAACGAUGACCACAATT against PPFIA3 | inactive: -0.0669 |
| CACCAAAGUUUGACUUAUUTT against LARP4 | inactive: -0.701 |
| GAAUUCAUACGCAAGAAAATT against ZNF302 | inactive: 0.498 |
| ACUUAUUCGGGAUAAAGUATT against ELAVL1 | inactive: 0.316 |
| GCUCGAACCUUGUUCAACATT against ZNF780B | inactive: -0.332 |

| Sequence | median seed-adjusted z-score |
| --- | --- |
| GGAAAGAUGCGACCUAGAATT against MEFV | inactive: 0 |
| GCAUCACGUGUAUUUAUAATT against CHSY1 | inactive: 0.247 |
| CACGCAGAGUUACCGAAAATT against SPEN | active: -1.69 |
| CCUACUUUCUCACUAUCCATT against HTR2B | inactive: -0.325 |
| CGACAACAGGGCUCUAUUATT against RBM5 | inactive: -0.289 |
| GCUUUGUCCCUAAUUUCCATT against GPX3 | inactive: 0.193 |
| GACUGCAGUUGGUCUUUCATT against DIABLO | inactive: 0.913 |
| GAACAACCCUAACCCAAGATT against ITGAM | active: -1.56 |
| GGCCGUGCAGAACAAAGUATT against RFX5 | inactive: 0.432 |
| GAAUCGACGUAAUUCCAGUTT against N-PAC | inactive: 0.0542 |
| AAACCACAAGCAUCGAGAATT against DMBX1 | inactive: -0.207 |
| CCUUAUACAUGUAACAUAUTT against ZNF454 | inactive: 0 |
| GCAACAGAAUCGAGCAAGATT against MFRP | inactive: -0.209 |
| GGCUUACACGGACAUCAAATT against GSK3A | inactive: 0.248 |
| GGAUAGCUGUGGUUGCAUUTT against THNSL1 | inactive: -0.176 |
| AGUCCAACGAGAAAGCUGATT against SAA4 | inactive: 0.104 |
| CCACCAACCUUUAAGCAAATT against EREG | inactive: 0.29 |
| CAGACUACCUUAACGAUUUTT against IKZF5 | inactive: 0.399 |
| CAAGGAUACCUACAAAUUATT against BHLHB3 | inactive: -0.00972 |
| GUAUCGUUGGUGGAUAUGATT against LNX2 | inactive: 0 |
| GCAGCUACCAAAACGUCUATT against ENDOG | inactive: -0.336 |
| UGAGUACUGUAGUACAGAATT against KLRB1 | inactive: -0.44 |

| Sequence | median seed-adjusted z-score |
| --- | --- |
| UCAUCUACGGCAACACGUUTT against GNAT1 | inactive: -0.188 |
| GUACCUCUACUAGAUCUAATT against THNSL1 | inactive: -0.176 |
| CAGUUACUAUAAAAACCGATT against ZNF711 | inactive: 0.254 |
| GGUUGGUACGUGUCAACGATT against SLC27A4 | inactive: 0.119 |
| CCUGCCCAAUGUGACCUUUTT against MRC2 | active: -1.34 |
| GGAAUAUAAUAAGCGAAGATT against TAOK1 | inactive: -0.0533 |
| CGAUGGUAUUGACUAAGUUTT against HSPA1L | active: -1.27 |
| CGAGAACGCAUGCUAAAAATT against ZNF556 | inactive: 0 |
| GCACCUCAUUUGCCGAAUATT against DNMT1 | inactive: 0.185 |
| CGCAUUGCUUACUUACAAATT against PCDHA10 | inactive: 0.0404 |
| AAACUUCGCUUCCGAAAAATT against ZNHIT1 | inactive: -0.497 |
| CGGUGGUGAAUGAAAGUCATT against FKBP14 | inactive: -0.455 |
| AGGUCCGCGUUAAAUGCAATT against UBL5 | inactive: -0.706 |
| GACCUGGUCUAAAACGAAATT against BLVRA | inactive: 0.212 |
| CUACCUCCAUUGACCCUGATT against PEX5 | inactive: -0.0414 |
| CAAUCCAGAGUAACACUAUTT against PCK2 | inactive: 0.318 |
| GAGUGUUAGUGAGAAGAUATT against PEX12 | inactive: -0.129 |
| GAACCAUGCAAGAUAUUGUTT against PCGF3 | inactive: 0.876 |
| CAAGUGGGCUGAGUACCAUTT against PHPT1 | active: 1.27 |
| GCUGUACCGUGGGCUUCUATT against ATG4D | inactive: -0.216 |
